B1: TNFRSF6B (protein, UniProt O95407 30-300, looked up)
Tumor necrosis factor …: VAETPTYPWRDAETGERLVCAQCPPGTFVQRPCRRDSPTTCGPCPPRHYTQFWNYLERCRYCNVLCGEREEEARACHATHNRACRCRTGFFAHAGFCLEHASCPPGAGVIAPGTPSQNTQCQPCPPGTFSASSSSSEQCQPHRNCTALGLALNVPGSSSHDTLCTSCTGFPLSTRVPGAEECERAVIDFVAFQDISIKRLQRLLQALEAPEGWGPTPRAGRAALQLKLRRRLTELLGAQDGALLVRLLQALRVARMPGLERSVRERFLPVH
B2: NECTIN2 (protein, UniProt Q92692 32-538, looked up)
Nectin-2: QDVRVQVLPEVRGQLGGTVELPCHLLPPVPGLYISLVTWQRPDAPANHQNVAAFHPKMGPSFPSPKPGSERLSFVSAKQSTGQDTEAELQDATLALHGLTVEDEGNYTCEFATFPKGSVRGMTWLRVIAKPKNQAEAQKVTFSQDPTTVALCISKEGRPPARISWLSSLDWEAKETQVSGTLAGTVTVTSRFTLVPSGRADGVTVTCKVEHESFEEPALIPVTLSVRYPPEVSISGYDDNWYLGRTDATLSCDVRSNPEPTGYDWSTTSGTFPTSAVAQGSQLVIHAVDSLFNTTFVCTVTNAVGMGRAEQVIFVRETPNTAGAGATGGIIGGIIAAIIATAVAATGILICRQQRKEQTLQGAEEDEDLEGPPSYKPPTPKAKLEAQEMPSQLFTLGASEHSPLKTPYFDAGASCTEQEMPRYHELPTLEERSGPLHPGATSLGSPIPVPPGPPAVEDVSLDLEDEEGEEEEEYLDKINPIYDALSYSSPSDSYQGKGFVMSRAMYV
B3: SIGLEC7 (protein, UniProt Q9Y286 19-467, looked up)
Sialic acid-binding Ig-like …: QKSNRKDYSLTMQSSVTVQEGMCVHVRCSFSYPVDSQTDSDPVHGYWFRAGNDISWKAPVATNNPAWAVQEETRDRFHLLGDPQTKNCTLSIRDARMSDAGRYFFRMEKGNIKWNYKYDQLSVNVTALTHRPNILIPGTLESGCFQNLTCSVPWACEQGTPPMISWMGTSVSPLHPSTTRSSVLTLIPQPQHHGTSLTCQVTLPGAGVTTNRTIQLNVSYPPQNLTVTVFQGEGTASTALGNSSSLSVLEGQSLRLVCAVDSNPPARLSWTWRSLTLYPSQPSNPLVLELQVHLGDEGEFTCRAQNSLGSQHVSLNLSLQQEYTGKMRPVSGVLLGAVGGAGATALVFLSFCVIFIVVRSCRKKSARPAADVGDIGMKDANTIRGSASQGNLTESWADDNPRHHGLAAHSSGEEREIQYAPLSFHKGEPQDLSGQEATNNEYSEIKIPK
B4: PRDX6 (protein, UniProt P30041 2-224, looked up)
Peroxiredoxin-6: PGGLLLGDVAPNFEANTTVGRIRFHDFLGDSWGILFSHPRDFTPVCTTELGRAAKLAPEFAKRNVKLIALSIDSVEDHLAWSKDINAYNCEEPTEKLPFPIIDDRNRELAILLGMLDPAEKDEKGMPVTARVVFVFGPDKKLKLSILYPATTGRNFDEILRVVISLQLTAEKRVATPVDWKDGDSVMVLPTIPEEEAKKLFPKGVFTKELPSGKKYLRYTPQP
B5: PON3 (protein, UniProt Q15166 1-354, looked up)
Serum paraoxonase/lactonase 3: MGKLVALVLLGVGLSLVGEMFLAFRERVNASREVEPVEPENCHLIEELESGSEDIDILPSGLAFISSGLKYPGMPNFAPDEPGKIFLMDLNEQNPRAQALEISGGFDKELFNPHGISIFIDKDNTVYLYVVNHPHMKSTVEIFKFEEQQRSLVYLKTIKHELLKSVNDIVVLGPEQFYATRDHYFTNSLLSFFEMILDLRWTYVLFYSPREVKVVAKGFCSANGITVSADQKYVYVADVAAKNIHIMEKHDNWDLTQLKVIQLGTLVDNLTVDPATGDILAGCHPNPMKLLNYNPEDPPGSEVLRIQNVLSEKPRVSTVYANNGSVLQGTSVASVYHGKILIGTVFHKTLYCEL
B6: HAOX1 (protein, UniProt Q9UJM8 1-370, looked up)
2-Hydroxyacid oxidase 1: MLPRLICINDYEQHAKSVLPKSIYDYYRSGANDEETLADNIAAFSRWKLYPRMLRNVAETDLSTSVLGQRVSMPICVGATAMQRMAHVDGELATVRACQSLGTGMMLSSWATSSIEEVAEAGPEALRWLQLYIYKDREVTKKLVRQAEKMGYKAIFVTVDTPYLGNRLDDVRNRFKLPPQLRMKNFETSTLSFSPEENFGDDSGLAAYVAKAIDPSISWEDIKWLRRLTSLPIVAKGILRGDDAREAVKHGLNGILVSNHGARQLDGVPATIDVLPEIVEAVEGKVEVFLDGGVRKGTDVLKALALGAKAVFVGRPIVWGLAFQGEKGVQDVLEILKEEFRLAMALSGCQNVKVIDKTLVRKNPLAVSKI

Experiments:
plasma proteins [1] = assay: OLINK proximity extension assay of baseline plasma, CR compared to PD/Death, updated classification, Example 5 (Table 11); type: in vivo, human; conditions: itacitinib 200 or 300 mg QD plus corticosteroids, response at day 28
[2] = tested on: MCP-3 (CCL7), Reg3A, TNFRSF6B, SCF, CXCL10, IL-8, ST2, CALCA, TNF-R1, IL-6, CCL19, IL-2Ra, and PON3; conditions: targeted OLINK proximity extension assay; for Protein expression, mean, CR (N = 10) / Protein expression, median, CR (N = 10): Complete Responder group; for Protein expression, mean, PD/Death (N = 7) / Protein expression, median, PD/Death (N = 7): Progressive Disease/Death group
plasma proteins [3] = assay: Proteins of Table 11 stably expressed in complete responders between days 1 and 28, Example 5 (Table 12); type: in vivo, human; conditions: day 1 vs day 28

Molecule	Fold Change, Down-Regulated in CR Compared to PD/Death (plasma proteins [1])	Protein expression, mean, CR (N = 10) [2]	Protein expression, median, CR (N = 10) [2]	Protein expression, mean, PD/Death (N = 7) [2]	Protein expression, median, PD/Death (N = 7) [2]	Fold Change (D1 vs D28), proteins Down-Regulated in CR Compared to PD/Death (plasma proteins [3])	Fold Change, Up-Regulated in CR Compared to PD/Death (plasma proteins [1])	Fold Change (D1 vs D28), proteins Up-Regulated in CR Compared to PD/Death (plasma proteins [3])
B1	−2.24	184.7 pg/mL	159 pg/mL	411.9 pg/mL	413.6 pg/mL			
B2	−1.5594					−1.1579		
B3	−1.4749					−1.0923		
B4	−1.4644					−1.061		
B5		438566 pg/mL	386584 pg/mL	148321 pg/mL	93702 pg/mL		4.8594	1.3014
B6	−7.846					1.5747		

From patent US12099068B2, “Biomarkers for graft-versus-host disease” (Incyte Corporation, priority 2018, dated 2024)
